Test results taken from publication doi:10.1101/846592.
These are yes or no findings as the source states them, for the method shown. In cells and extracts the contact can be indirect. Some binding calls cover weakened binding; strength is not graded here. Sequences can lack the tags named with a protein.

Target: T1, HAM1-6xHis (A. thaliana) (UniProt Q9FLF7)
T1 sequence: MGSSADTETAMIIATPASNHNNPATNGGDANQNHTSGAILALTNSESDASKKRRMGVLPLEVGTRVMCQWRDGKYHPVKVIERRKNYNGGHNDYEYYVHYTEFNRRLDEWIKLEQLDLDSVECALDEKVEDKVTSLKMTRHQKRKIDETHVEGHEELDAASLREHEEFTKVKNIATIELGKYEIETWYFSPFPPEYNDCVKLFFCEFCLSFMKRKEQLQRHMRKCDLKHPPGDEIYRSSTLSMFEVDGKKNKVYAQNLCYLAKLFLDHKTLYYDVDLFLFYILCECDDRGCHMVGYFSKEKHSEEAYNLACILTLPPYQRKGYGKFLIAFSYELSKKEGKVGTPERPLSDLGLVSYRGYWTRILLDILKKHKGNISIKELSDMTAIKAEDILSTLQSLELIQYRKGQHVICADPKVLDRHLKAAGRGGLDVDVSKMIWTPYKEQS
Test: pull-down

B1: ING2 (protein, UniProt B3H615 1-262)
chain: MAIARTGVYVDDYLEYASTFPAELQRLLNTVRELDERSQSLINQTRQQTKYCLGLASQSSKKGNGNHYNNGGLDEEETIEKMRKEIESSQENALSLCTEKVLLARQAYDLIDSHVKRLDEDLNNFAEDLKQEGKIPPDEPSVLPPLPIVPKAEKRKSFYGTPQPKKIDYRDRDWDRDRDFELMPPPGSNRKDLMPIEEQPIDPNEPTYCVCHQVSFGDMIACDNENCQGGEWFHYTCVGLTPETRFKGKWYCPTCRLLPQSH
binding: binds
